These results are taken from article doi:10.1101/2022.09.12.507586.

Assay [1] addresses Cys-FtsZ (Cys-tagged FtsZ) (Myxococcus xanthus) (UniProt Q1D0T7). The assay can be described thus: high-speed centrifugation.
For assay [2], the target named is untagged FtsZ (Myxococcus xanthus) (UniProt Q1D0T7). The assay is described as follows: high-speed centrifugation.

These are yes or no findings as the source states them, for the method shown. Some results given as binding are weak or reduced against the parent protein; the word gives no strength. Sequences can lack the tags named with a protein.

B1: Cys-FtsZ (Cys-tagged FtsZ) (protein, UniProt Q1D0T7 1-405)
chain: MDQFDQNKQAAKIRVVGAGGAGCNAVNTMILSKLDRVDFIAANTDVQALAASKAPTRLQLGQTLTKGLGAGANPEMGREAALESRDQIAAVLEGADMVFVTAGMGGGTGTGAAPIIADIAKSLGCLTVGVVTKPFLFEGNKRRKQAEQGIVELKAAVDTLITIPNQRLLSLSNEPMPLLETFKRADEVLLNAVQGISDLIQYHGYINVDFADVKTIMSDKGIALMGTGNSTGDKRALIAMQQAIASPLLEDVTIDGATGLLINITGGRDMTLQEVNEALTLVHDAADSEAEIIFGSLIDENISDEVKITIIATGFVHRDAPKVRTVAPVVQVPLSRPAPSVLANAREEVASLVPTKGSGSRPLTVESAKSVSARTAVVKDAPLPLDEDQFDIPTFLRRQGQTELP
For B1, the binding result in assay [1] is given as “binds”.

B2: untagged FtsZ (protein, UniProt Q1D0T7 1-405)
chain: B1 chain
B2: the binding result in assay [2] is recorded as “binds”.
